According to the supplement of paper PMC10849652:
Some of the results follow.

The chains behind the UniProt entries cited, without tags or fusion partners. Where a name states a change or a piece, a line headed by the entry shows the natural chain unless it says otherwise.
UniProt P50548: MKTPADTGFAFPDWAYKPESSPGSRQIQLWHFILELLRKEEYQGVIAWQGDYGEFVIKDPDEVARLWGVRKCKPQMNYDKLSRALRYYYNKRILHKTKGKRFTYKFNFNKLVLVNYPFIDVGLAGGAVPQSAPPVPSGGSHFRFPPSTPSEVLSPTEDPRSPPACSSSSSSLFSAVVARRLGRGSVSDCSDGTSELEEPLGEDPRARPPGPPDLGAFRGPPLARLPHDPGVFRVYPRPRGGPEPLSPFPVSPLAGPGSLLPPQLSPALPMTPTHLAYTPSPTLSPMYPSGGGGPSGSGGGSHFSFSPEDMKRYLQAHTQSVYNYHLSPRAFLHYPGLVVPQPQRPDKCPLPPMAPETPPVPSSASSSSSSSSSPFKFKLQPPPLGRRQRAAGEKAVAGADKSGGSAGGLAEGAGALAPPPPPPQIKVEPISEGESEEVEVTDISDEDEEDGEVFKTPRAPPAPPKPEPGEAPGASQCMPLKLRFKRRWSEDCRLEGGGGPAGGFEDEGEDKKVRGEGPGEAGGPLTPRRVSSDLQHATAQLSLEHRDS
UniProt P11171, whole entry, looked up: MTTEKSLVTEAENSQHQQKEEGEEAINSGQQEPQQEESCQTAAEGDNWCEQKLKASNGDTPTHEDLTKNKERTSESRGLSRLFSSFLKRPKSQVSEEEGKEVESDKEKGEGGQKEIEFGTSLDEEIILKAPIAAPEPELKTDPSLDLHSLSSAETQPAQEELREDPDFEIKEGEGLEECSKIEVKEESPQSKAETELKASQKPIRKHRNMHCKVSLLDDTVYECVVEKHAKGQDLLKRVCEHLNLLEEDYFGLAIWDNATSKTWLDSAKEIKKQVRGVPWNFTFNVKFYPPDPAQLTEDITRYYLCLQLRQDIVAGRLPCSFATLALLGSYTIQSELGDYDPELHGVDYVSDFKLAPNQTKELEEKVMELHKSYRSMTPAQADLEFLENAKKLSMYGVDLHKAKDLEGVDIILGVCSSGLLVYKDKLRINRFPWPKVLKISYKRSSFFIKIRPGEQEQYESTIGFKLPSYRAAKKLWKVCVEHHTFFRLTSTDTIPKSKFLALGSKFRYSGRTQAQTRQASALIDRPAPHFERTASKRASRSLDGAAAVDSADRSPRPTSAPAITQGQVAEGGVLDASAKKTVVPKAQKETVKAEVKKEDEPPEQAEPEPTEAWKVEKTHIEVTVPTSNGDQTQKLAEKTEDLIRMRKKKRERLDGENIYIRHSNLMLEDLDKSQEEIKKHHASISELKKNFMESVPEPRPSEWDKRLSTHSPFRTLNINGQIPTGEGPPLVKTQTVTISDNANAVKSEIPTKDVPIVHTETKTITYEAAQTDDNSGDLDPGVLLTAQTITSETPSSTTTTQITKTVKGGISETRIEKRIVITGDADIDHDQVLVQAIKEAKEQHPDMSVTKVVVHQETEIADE
UniProt P34913, whole entry, looked up: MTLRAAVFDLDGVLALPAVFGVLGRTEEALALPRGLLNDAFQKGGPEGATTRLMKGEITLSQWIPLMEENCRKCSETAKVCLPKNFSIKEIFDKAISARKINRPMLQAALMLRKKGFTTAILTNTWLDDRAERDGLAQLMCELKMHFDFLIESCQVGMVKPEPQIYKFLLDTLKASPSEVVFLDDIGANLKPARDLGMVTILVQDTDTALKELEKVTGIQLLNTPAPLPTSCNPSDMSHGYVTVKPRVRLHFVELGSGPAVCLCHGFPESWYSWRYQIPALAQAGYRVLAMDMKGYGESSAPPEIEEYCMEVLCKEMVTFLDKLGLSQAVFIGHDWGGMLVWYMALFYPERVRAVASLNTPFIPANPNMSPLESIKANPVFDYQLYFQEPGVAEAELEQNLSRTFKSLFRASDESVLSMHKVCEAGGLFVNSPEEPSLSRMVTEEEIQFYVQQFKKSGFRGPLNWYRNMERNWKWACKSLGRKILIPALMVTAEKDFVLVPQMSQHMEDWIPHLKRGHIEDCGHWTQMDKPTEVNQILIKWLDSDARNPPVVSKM
UniProt Q52LR7, whole entry, looked up: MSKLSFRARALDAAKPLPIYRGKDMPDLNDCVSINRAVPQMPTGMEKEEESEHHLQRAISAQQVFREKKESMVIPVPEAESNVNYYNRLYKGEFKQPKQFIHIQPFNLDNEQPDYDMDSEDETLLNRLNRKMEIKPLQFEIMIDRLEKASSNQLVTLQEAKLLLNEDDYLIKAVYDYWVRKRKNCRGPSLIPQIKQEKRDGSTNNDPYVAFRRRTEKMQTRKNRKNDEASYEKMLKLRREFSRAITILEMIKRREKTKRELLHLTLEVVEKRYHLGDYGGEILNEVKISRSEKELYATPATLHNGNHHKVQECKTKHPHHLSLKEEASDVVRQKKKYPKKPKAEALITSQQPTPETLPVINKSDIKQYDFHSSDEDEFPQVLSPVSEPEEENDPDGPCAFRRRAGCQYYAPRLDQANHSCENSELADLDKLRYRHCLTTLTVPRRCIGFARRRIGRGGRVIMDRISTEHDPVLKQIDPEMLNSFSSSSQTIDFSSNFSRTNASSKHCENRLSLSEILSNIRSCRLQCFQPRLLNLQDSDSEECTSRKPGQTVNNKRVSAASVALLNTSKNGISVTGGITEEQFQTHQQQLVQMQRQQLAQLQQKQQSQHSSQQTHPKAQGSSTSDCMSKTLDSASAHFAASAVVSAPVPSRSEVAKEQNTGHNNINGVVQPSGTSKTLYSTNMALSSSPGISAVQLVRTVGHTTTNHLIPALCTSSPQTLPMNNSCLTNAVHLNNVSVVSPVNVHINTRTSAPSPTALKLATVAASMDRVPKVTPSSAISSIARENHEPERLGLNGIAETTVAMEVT
UniProt O60516: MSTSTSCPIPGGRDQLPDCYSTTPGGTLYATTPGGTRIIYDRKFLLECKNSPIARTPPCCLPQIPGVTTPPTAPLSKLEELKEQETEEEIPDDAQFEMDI
UniProt Q96C92: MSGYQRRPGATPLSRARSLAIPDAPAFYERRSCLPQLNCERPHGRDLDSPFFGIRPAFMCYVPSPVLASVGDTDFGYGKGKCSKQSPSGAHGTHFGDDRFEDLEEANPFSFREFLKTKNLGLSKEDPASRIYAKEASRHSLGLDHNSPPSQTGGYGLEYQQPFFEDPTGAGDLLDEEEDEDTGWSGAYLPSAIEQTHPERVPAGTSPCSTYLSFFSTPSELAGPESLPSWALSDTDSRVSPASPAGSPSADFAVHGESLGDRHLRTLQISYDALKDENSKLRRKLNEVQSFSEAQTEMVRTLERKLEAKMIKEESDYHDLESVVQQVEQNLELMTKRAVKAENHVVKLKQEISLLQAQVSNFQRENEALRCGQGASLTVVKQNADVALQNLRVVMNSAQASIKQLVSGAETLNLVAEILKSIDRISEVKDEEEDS
UniProt O43491, whole entry, looked up: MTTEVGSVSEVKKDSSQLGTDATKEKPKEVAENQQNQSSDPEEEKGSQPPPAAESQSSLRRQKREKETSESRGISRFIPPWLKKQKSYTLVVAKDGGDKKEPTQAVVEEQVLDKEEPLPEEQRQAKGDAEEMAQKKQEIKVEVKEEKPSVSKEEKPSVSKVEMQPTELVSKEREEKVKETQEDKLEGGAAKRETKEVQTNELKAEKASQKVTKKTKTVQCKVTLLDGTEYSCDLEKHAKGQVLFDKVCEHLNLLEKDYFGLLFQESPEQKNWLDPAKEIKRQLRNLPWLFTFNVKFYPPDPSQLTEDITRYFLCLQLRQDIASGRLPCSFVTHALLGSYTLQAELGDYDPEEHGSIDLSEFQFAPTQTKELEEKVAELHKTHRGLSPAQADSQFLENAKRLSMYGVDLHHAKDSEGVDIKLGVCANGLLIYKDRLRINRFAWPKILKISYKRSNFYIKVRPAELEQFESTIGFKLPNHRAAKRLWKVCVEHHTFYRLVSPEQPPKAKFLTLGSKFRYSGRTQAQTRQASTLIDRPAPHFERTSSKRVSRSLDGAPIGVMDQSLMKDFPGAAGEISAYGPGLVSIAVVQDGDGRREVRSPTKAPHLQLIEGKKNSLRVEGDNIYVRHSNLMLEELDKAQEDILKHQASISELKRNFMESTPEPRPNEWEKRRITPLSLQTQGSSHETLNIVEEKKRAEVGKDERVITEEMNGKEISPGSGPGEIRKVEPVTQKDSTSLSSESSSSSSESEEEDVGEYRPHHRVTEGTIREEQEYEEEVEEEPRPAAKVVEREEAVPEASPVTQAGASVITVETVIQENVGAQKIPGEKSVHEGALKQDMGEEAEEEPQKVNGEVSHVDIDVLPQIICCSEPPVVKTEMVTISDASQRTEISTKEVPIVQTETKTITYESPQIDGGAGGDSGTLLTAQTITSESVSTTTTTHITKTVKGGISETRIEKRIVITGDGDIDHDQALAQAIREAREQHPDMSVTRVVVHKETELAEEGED
UniProt Q9NZJ5: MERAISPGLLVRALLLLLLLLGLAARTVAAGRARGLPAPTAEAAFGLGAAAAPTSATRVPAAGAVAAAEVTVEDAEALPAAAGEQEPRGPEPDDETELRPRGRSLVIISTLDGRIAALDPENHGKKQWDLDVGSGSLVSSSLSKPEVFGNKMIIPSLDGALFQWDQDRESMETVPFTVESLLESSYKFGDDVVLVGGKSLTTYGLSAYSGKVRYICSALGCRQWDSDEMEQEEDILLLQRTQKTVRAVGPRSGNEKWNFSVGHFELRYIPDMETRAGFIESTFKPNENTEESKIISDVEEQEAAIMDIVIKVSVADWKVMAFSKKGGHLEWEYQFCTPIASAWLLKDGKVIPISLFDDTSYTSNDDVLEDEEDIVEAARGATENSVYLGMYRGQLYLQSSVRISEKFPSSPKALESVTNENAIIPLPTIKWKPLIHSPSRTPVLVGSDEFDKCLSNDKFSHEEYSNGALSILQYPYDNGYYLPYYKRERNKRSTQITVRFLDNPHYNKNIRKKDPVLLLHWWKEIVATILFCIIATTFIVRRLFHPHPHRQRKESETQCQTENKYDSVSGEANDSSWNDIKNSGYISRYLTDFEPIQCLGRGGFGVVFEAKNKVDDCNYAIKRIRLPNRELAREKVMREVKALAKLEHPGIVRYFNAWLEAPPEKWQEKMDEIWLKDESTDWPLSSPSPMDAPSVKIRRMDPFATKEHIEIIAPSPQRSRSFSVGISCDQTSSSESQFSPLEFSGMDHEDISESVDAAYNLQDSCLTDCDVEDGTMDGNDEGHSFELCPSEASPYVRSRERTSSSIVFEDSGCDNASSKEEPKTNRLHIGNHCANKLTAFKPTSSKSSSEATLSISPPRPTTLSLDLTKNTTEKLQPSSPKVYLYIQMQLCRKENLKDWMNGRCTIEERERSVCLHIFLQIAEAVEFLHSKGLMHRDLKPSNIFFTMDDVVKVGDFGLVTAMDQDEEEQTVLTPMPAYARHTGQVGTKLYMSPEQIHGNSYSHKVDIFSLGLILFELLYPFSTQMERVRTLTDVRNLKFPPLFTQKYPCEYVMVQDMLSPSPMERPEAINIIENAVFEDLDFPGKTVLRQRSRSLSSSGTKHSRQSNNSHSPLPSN
UniProt O15197: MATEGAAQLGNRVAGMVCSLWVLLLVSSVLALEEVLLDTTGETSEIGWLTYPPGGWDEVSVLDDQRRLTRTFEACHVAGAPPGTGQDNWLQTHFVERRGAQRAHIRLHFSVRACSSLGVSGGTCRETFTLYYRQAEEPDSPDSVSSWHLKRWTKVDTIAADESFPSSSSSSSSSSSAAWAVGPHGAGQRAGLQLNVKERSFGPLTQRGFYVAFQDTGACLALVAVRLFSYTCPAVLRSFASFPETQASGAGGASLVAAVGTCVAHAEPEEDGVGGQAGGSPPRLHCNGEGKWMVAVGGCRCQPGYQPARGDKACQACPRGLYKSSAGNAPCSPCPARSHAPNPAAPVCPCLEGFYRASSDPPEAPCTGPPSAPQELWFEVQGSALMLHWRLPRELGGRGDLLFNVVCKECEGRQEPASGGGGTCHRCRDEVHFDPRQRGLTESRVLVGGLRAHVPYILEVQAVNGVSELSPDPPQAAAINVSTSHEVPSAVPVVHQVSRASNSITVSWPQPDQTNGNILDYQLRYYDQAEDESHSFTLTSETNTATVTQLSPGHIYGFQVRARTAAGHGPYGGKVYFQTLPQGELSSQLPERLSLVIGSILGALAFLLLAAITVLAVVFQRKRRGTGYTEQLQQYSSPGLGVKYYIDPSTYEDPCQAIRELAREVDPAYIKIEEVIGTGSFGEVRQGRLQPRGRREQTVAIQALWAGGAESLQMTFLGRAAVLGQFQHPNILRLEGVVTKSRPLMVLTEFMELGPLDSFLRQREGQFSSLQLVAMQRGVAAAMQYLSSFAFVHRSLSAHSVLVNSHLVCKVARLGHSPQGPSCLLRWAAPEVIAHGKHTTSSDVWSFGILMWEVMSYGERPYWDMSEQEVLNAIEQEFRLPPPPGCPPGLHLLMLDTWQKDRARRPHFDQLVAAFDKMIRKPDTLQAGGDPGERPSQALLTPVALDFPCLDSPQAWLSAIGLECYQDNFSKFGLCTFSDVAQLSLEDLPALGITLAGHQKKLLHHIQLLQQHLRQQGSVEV
UniProt Q9UKR5: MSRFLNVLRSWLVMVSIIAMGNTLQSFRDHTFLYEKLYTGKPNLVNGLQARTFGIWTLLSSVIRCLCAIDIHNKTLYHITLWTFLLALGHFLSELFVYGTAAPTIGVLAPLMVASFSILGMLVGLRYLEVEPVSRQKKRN

Experiments:
Test in all cases: log2 fold change, soluble protein after heating vs DMSO (PISA); higher = thermal stabilisation; K562 lysate, 10 uM; active = over 0.2 and 3.5 SD of the protein, either way, in both replicates (recomputed)
erlotinib = compound: C#Cc1cccc(Nc2ncnc3cc(OCCOC)c(OCCOC)cc23)c1 [erlotinib]
Procedure, shortened: (§1)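 Pellets of K562 cells were dounce-homogenised in PBS pH 7.4 with 1 mM MgCl2, and the crude extract was held at 1 mg/mL protein for a 30 min treatment with 10 μM compound. Aliquots were heated for 3 min over 48°C-58°C and pooled before NP-40 was added to 0.5% at 4°C. The supernatant from 21,000xg for 90 min was quantified by TMTpro 16plex LC-MS/MS with channel sums equalised. Values are reported from duplicates as log-two fold change in thermal stability relative to solvent controls.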

[1] = compound: C/C(=N\NC(=O)C1=CC(=CC=C1)S(=O)(=O)N2CCOCC2)/C3=C(C=CC(=C3)Cl)O
Procedure, shortened: as §1

[2] = compound: C1=CC(=CC=C1C2=NC3=C(N2)C=C(C=C3)C(=O)N)OC4=CC=C(C=C4)Cl
Procedure, shortened: as §1

[3] = compound: C1=CC2=C(C=CC(=C2)/C=C\3/C(=O)NC(=NCC4=CC=CS4)S3)N=C1
Procedure, shortened: as §1

[4] = compound: C1=CC=C(C=C1)C2=NC(=C(N2)C3=CC=NC=C3)C4=CC(=C(C=C4)Cl)O
Procedure, shortened: as §1

[5] = compound: C1=CC=C2C(=C1)C3=NNC4=CC=CC(=C43)C2=O
Procedure, shortened: as §1

IRAK-1-4 Inhibitor I = compound: C1COCCN1CCN2C3=CC=CC=C3N=C2NC(=O)C4=CC(=CC=C4)[N+](=O)[O-] [IRAK-1-4 Inhibitor I]
Procedure, shortened: as §1

ralimetinib = compound: CC(C)(C)Cn1c(N)nc2ccc(-c3[nH]c(C(C)(C)C)nc3-c3ccc(F)cc3)nc21 [ralimetinib]
Procedure, shortened: as §1

[6] = compound: CC(C)(O)CC(=O)NCCn1ccc2ncnc(Nc3ccc(Oc4cccc(C(F)(F)F)c4)c(Cl)c3)c21
Procedure, shortened: as §1

[7] = compound: CC(C)C1=C2N=C(C=C(N2N=C1)NCC3=CC=CC=C3)NCCCCCCN
Procedure, shortened: as §1

[8] = compound: CC1=C(C(CC(=O)N1)C2=CC=C(C=C2)C(F)(F)F)C(=O)NC3=C(C=C4C(=C3)C=NN4)F
Procedure, shortened: as §1

[9] = compound: CC1=C(C2=C(C=C1)C(=O)C3=CC=CC=C3N2CCCN)C
Procedure, shortened: as §1

[10] = compound: CC1=C(C=C(C=C1)NC(=O)C2=CC(=CC=C2)C(C)(C)C#N)NC3=CC4=C(C=C3)N=CN(C4=O)C
Procedure, shortened: as §1

[11] = compound: CC1=C(C=C(C=C1)NC(=O)C2=CC(=CC=C2)N(C)C)NC(=O)C3=CC=C(C=C3)O
Procedure, shortened: as §1

[12] = compound: C1=CC2=NC=CN=C2C=C1/C=C/3\C(=O)NC(=O)S3
Procedure, shortened: as §1

[13] = compound: C1CCN(C1)C(=O)NC2=CC=CC(=C2)NC3=NC=C(C(=N3)NCCC4=CN=CN4)Br
Procedure, shortened: as §1

[14] = compound: C1CN(CCC1(CC2=CC=C(C=C2)Cl)N)C3=NC=NC4=C3C=CN4
Procedure, shortened: as §1

ibrutinib = compound: C=CC(=O)N1CCC[C@@H](n2nc(-c3ccc(Oc4ccccc4)cc3)c3c(N)ncnc32)C1 [ibrutinib]
Procedure, shortened: as §1

[15] = compound: CC(=O)c1cnc2ccc(-c3cc(Cl)c(O)c(Cl)c3)nc2c1N[C@H]1CC[C@H](CN(C)C)CC1
Procedure, shortened: as §1

[16] = compound: CC1=CC=C(C=C1)SC2=C3C=C(SC3=CN=C2)C(=O)N
Procedure, shortened: as §1

Measured: log2 fold change

ERF (UniProt P50548)
inactive: erlotinib 0.109 | [1] -0.192 | [2] 0.053 | [3] -0.131 | [4] -0.064 | [5] -0.004 | IRAK-1-4 Inhibitor I -0.023 | ralimetinib -0.054 | [6] -0.092 | [7] 0.218 | [8] -0.124 | [9] 0.029 | [10] -0.035 | [11] 0.025

EPB41 (UniProt P11171)
inactive: erlotinib -0.024 | [1] -0.021 | [2] -0.068 | [3] 0.006 | [12] -0.005 | [4] 0 | [5] 0.014 | [13] 0.004 | [14] 0.008 | IRAK-1-4 Inhibitor I -0.028 | ibrutinib 0.01 | [15] 0.026 | ralimetinib 0.009 | [6] 0.012 | [7] -0.003 | [8] -0.001 | [9] 0.018 | [10] -0.023 | [11] 0.01 | [16] 0.044

EPHX2 (UniProt P34913)
inactive: erlotinib -0.024 | [1] 0.133 | [2] 0.156 | [3] 0.036 | [12] -0.023 | [4] -0.014 | [5] 0.014 | [13] 0.077 | [14] -0.002 | IRAK-1-4 Inhibitor I -0.014 | ibrutinib 0.051 | [15] -0.002 | ralimetinib -0.001 | [6] -0.02 | [7] 0.099 | [8] 0.004 | [9] -0.006 | [10] 0.11 | [11] 0.06 | [16] 0.051

EME1 isoform 2 (UniProt Q96AY2)
inactive: [1] 0.063 | [3] -0.093 | [12] -0.038 | [4] -0.03 | [5] -0.154 | [13] 0.105 | [14] -0.007 | IRAK-1-4 Inhibitor I 0.132 | ibrutinib -0.055 | ralimetinib -0.009 | [6] -0.114 | [10] -0.026 | [11] 0.104

EIF2B5, A0A3B3ITK8
inactive: [15] 0.015 | [8] 0.037 | [16] -0.104

EPC2 (UniProt Q52LR7)
inactive: [1] -0.379 | [3] -0.061 | [12] -0.05 | [5] -0.068 | [13] -0.027 | [14] -0.097 | ibrutinib 0.126 | [15] -0.047 | [9] -0.018 | [10] 0.039 | [16] 0.041

ENTPD6 (UniProt O75354)
inactive: erlotinib -0.017 | [2] -0.085 | [12] -0.041 | [4] 0.034 | IRAK-1-4 Inhibitor I 0.066 | ibrutinib -0.204 | [15] 0.118 | ralimetinib -0.09 | [6] -0.051 | [7] -0.008 | [9] 0.003 | [10] -0.026 | [11] 0.035 | [16] -0.004

ENO3 (UniProt K7EKN2)
inactive: [15] 0.052 | [16] 0.05

EIF4EBP3 (UniProt O60516)
inactive: erlotinib 0.129 | [2] 0.005 | [7] -0.047

ENTR1 (UniProt Q96C92)
inactive: [1] -0.018 | [3] -0.028 | [4] 0.117 | [5] 0.022 | [13] 0.06 | [14] 0.059 | IRAK-1-4 Inhibitor I -0.075 | ralimetinib -0.012 | [6] -0.023 | [8] 0 | [10] 0.106 | [11] -0.052

EPB41L2 isoform 4 (UniProt O43491)
inactive: [12] -0.066 | [4] -0.016 | IRAK-1-4 Inhibitor I 0.086 | ibrutinib -0.08 | [15] -0.008 | ralimetinib -0.02 | [6] -0.148 | [8] 0.042 | [11] -0.18 | [16] 0.024

EPN1 isoform 3 (UniProt Q9Y6I3)
inactive: erlotinib -0.057 | [2] 0.202 | [4] -0.198 | IRAK-1-4 Inhibitor I -0.154 | [15] -0.026 | ralimetinib 0.035 | [6] 0.037 | [7] 0.074 | [8] 0.072 | [9] -0.095 | [10] 0.179 | [11] -0.086 | [16] -0.12

ELK1 (UniProt P19419)
inactive: [1] -0.104 | [3] -0.154 | [12] 0.164 | [4] -0.059 | [5] -0.003 | [13] -0.099 | [14] -0.038 | IRAK-1-4 Inhibitor I 0.078 | ibrutinib -0.059 | ralimetinib 0.049 | [6] -0.129 | [9] -0.139 | [11] -0.057

EIF3J isoform 2 (UniProt O75822)
inactive: [1] 0.047 | [3] 0.005 | [4] -0.001 | [5] -0.065 | [13] -0.073 | [14] 0.101 | IRAK-1-4 Inhibitor I 0.007 | [15] -0.017 | ralimetinib -0.004 | [6] 0.012 | [11] 0.065 | [16] -0.013

EIF3G (UniProt K7ENA8)
inactive: [12] 0.065 | ibrutinib 0.111 | [15] 0.135 | [9] 0.088 | [16] 0.022

ENTPD4 (UniProt Q9Y227)
inactive: [4] -0.06 | IRAK-1-4 Inhibitor I -0.134 | ralimetinib 0.073 | [6] -0.121 | [11] 0

EPC1 (UniProt Q9H2F5)
inactive: [12] 0.028 | ibrutinib 0.154 | [10] -0.165

EIF4A1 (UniProt J3KS25)
inactive: [1] 0.106 | [3] -0.016 | [4] 0.006 | [5] 0.263 | [13] -0.201 | [14] 0.279 | IRAK-1-4 Inhibitor I -0.099 | ralimetinib -0.101 | [6] -0.029 | [11] 0.295

EIF2AK3 (UniProt Q9NZJ5)
inactive: erlotinib -0.014 | [2] 0.015 | [4] -0.049 | IRAK-1-4 Inhibitor I -0.044 | [15] 0.003 | ralimetinib 0.039 | [6] -0.191 | [7] 0.012 | [8] -0.052 | [9] 0.037 | [11] -0.061 | [16] -0.07

EIF4B (UniProt F8VP89)
inactive: [12] 0.031 | ibrutinib -0.019 | [15] -0.01 | [9] 0.149 | [10] 0.368 | [16] 0.202

EPB41L5 (UniProt Q9HCM4)
inactive: erlotinib 0.075 | [2] -0.012 | [12] 0.028 | [13] -0.167 | [14] -0.01 | ibrutinib 0.012 | [15] 0.156 | [7] 0.022 | [10] -0.002 | [16] -0.105

EIF4G3, A0A0A0MSA7
inactive: [4] 0.091 | IRAK-1-4 Inhibitor I 0.275 | ralimetinib -0.096 | [6] -0.111 | [9] -0.143 | [11] 0.031

EIF3I (UniProt Q5TFK1)
inactive: [15] 0.266 | [8] -0.661 | [16] -0.059

Fetched one by one from the entries so far, 2 records:
EIF4G3, A0A0A0MSA7
inactive: [4] 0.091 | IRAK-1-4 Inhibitor I 0.275 | ralimetinib -0.096 | [6] -0.111 | [9] -0.143 | [11] 0.031

EIF4B (UniProt F8VP89)
inactive: [12] 0.031 | ibrutinib -0.019 | [15] -0.01 | [9] 0.149 | [10] 0.368 | [16] 0.202

Next part

EML5 isoform 5 (UniProt Q05BV3)
inactive: erlotinib -0.018 | [2] -0.007 | [4] -0.079 | IRAK-1-4 Inhibitor I -0.033 | [15] -0.02 | ralimetinib 0.081 | [6] 0.058 | [7] 0.032 | [8] 0.02 | [9] -0.005 | [10] 0.037 | [11] -0.029 | [16] 0.016

EPHB6 (UniProt O15197)
inactive: [1] 0.035 | [3] -0.098 | [4] 0.246 | [5] 0.011 | [13] 0.032 | [14] -0.064 | IRAK-1-4 Inhibitor I 0.109 | ralimetinib -0.012 | [6] 0.023 | [8] 0.059 | [11] -0.217

ELOF1 (UniProt P60002)
inactive: erlotinib -0.003 | [2] 0.012 | [12] 0.067 | [4] 0.225 | IRAK-1-4 Inhibitor I -0.087 | ibrutinib 0.062 | [15] 0.039 | ralimetinib -0.157 | [6] 0.061 | [7] -0.08 | [9] 0.018 | [10] 0.416 | [11] 0.01 | [16] -0.029

ELAC1 (UniProt Q9H777)
inactive: [1] 0.137 | [3] -0.052 | [12] 0.03 | [5] -0.117 | [13] 0.273 | [14] 0.15 | ibrutinib 0.013 | [15] -0.004 | [16] -0.108

ERG28 (UniProt Q9UKR5)
inactive: [12] -0.015 | [13] 0.072 | [14] -0.066 | ibrutinib 0.064 | [15] -0.045 | [9] 0.059 | [16] -0.004

EPB41L5 isoform 2 (UniProt Q9HCM4)
inactive: [15] -0.116 | [16] 0.017

ERCC8 (UniProt Q13216)
inactive: [12] -0.155 | ibrutinib 0.071 | [15] -0.098 | [8] 0.153 | [10] 0.027 | [16] -0.069

EIF4G1 isoform 5 (UniProt Q04637)
inactive: [15] -0.084 | [8] -0.037 | [16] -0.014

EPN2 (UniProt I3L356)
inactive: [12] -0.143 | ibrutinib 0.105 | [15] -0.021 | [8] 0.102 | [16] 0.097

EPB41 isoform 4 (UniProt P11171)
inactive: erlotinib -0.128 | [2] -0.054 | [4] -0.012 | IRAK-1-4 Inhibitor I 0.002 | [15] 0.048 | ralimetinib -0.056 | [6] -0.018 | [7] 0.148 | [8] -0.012 | [10] 0.042 | [11] -0.001 | [16] -0.004
